The results in this text go back to PMC3662672.

Protein sequences, listed by entry. Tags and fused reporters are not part of them.
UniProt Q9Y6K9: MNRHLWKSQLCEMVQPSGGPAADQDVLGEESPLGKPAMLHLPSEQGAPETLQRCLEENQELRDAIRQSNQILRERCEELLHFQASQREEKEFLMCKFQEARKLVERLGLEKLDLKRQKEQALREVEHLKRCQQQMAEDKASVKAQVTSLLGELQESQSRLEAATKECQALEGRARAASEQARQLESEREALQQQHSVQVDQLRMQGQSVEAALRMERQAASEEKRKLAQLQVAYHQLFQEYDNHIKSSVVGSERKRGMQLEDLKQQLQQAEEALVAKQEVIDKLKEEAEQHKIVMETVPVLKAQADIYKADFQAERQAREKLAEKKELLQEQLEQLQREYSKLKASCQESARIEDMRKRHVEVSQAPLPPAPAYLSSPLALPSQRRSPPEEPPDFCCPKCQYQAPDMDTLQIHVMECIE

This experiment has as its target Flag-NEMO (NF-kappa-B essential modulator) (UniProt Q9Y6K9). The experiment in a line: co-IP; HEK293T cells co-transfected with UCHL1 and Flag-TRAF3, Flag-TRAF6 or Flag-NEMO; lysed after 48 h in NP40 buffer; immunoprecipitation with Flag antibody and protein A/G agarose at 4°C; co-precipitating UCHL1 detected by western blot. (Immunoblotting shows a protein as a band on a membrane.)

Results are given in words; binding and its absence hold for the method and conditions named. In cells and extracts the contact can be indirect.

Regarding “ubiquitin carboxyl-terminal hydrolase L1 (UCHL1) (from UniProt P09936-1 1-223) (enzyme)”, the binding entry is listed as “no binding”.
